Some of these results come from one statement about several compounds together.
Tested on: perfused mouse liver
Experiment: in situ TG-HDL2 endocytosis by perfused mouse liver (C57BL/6J)
Type: in vivo
Details: C57BL/6J mice, liver perfused in situ 10 min at 37° C.; apoA-I 10 μg/ml, AR-C69931MX 10 μM

apoA-I: HDL apolipoprotein A-I; generates ADP through activation of the ectopic form of ATP synthase
increase of 125I-TG-HDL2 internalization by the liver over control: up to 34%
